Measured values published in PubChem BioAssay AID504444 (National Center for Advancing Translational Sciences (NCATS), 2011).
In all, about 360,000 compounds went through this assay and about 7,500 (2.1%) were called active. Inconclusive means that the source gave no clear call. Such entries were picked first, then a sample of the others. Calls follow the shape of the dose curve; as a rule, active = well fitted inhibition curve with a large enough effect; inconclusive = small, poorly fitted or top-dose-only effect, or effect the other way; inactive = flat fitted curve, though single readings scatter. A potency beside an inconclusive call is a rough fit, not a confirmed value.

Test: Nrf2 qHTS screen for inhibitors; also: nearly all actives have a fitted effect of over 60% in size
Details: A549 ARE-Fluc reporter, luciferase luminescence, 18-24 h; activity change, negative = inhibition: at 46 µM (top of the series)
Method in brief: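 Concentration-response testing used A549 ARE_Fluc cells at 5000 cells/well. Following an 18-24 h compound incubation, viability was read by fluorescence (Ex 405/Em 525) and luciferase output by luminescence.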
% is scaled to controls: 0 for no effect and ±100 for the full control effect; potency is read from the fitted curve at half-maximal effect.

SMILES	Potency	activity change, negative = inhibition
Cc1ccc(OCC(=O)Nc2cccc3ccccc23)c([N+](=O)[O-])n1	inconclusive: 29.1 µM [falling, single point]	
CCN(CC)CCCNc1nc(CN2CCOCC2)nc2sc3c(c12)CCC3	inconclusive: 4.11 µM [activator, single point]	
Cc1ccc(OCCn2cc(/C=C(\C#N)C(=O)NCC3CCCO3)c3ccccc32)cc1 (stereo not drawn)	inconclusive: 14.6 µM [falling, partial curve]	
Cc1[nH]n(-c2ccc([N+](=O)[O-])cc2)c(=O)c1C=NCCN1CCN(C(=O)c2cccc(F)c2)CC1		inactive: -5.34%
CN(C)/C=N/c1nc2nccc(-c3cccnc3)n2n1		inactive: -18.8%
COc1ccc(N2CCN(C(=O)c3ccc(CS(=O)(=O)c4ccc(Br)cc4)o3)CC2)cc1	inconclusive: 1.84 µM [falling, partial curve]	
CN(C)CCNC(=O)CCCN1C(=O)c2cccnc2Oc2ccc(Cl)cc21	inconclusive: 29.1 µM [activator, single point]	
Cc1ccc(/C=N/NC(=O)c2ccc3c(c2)OCCO3)s1	inconclusive: 29.1 µM [activator, single point]	
O=C1CC(c2nc3ccccc3n2CCCOc2ccccc2)CN1c1ccc(F)cc1 (stereo not drawn)	inconclusive: 29.1 µM [falling, single point]	
Nc1ccc2c3c(cccc13)-c1ccccc1-2		inactive: 23.1%
O=C(O)CCC(=O)Nc1sc2c(c1C(=O)Nc1cccc3ccccc13)CCCCC2		inactive: -23%
CC(=O)C(Sc1nnnn1-c1ccc(O)cc1)c1ccccc1 (stereo not drawn)	inconclusive: 25.9 µM [activator, partial curve, poor fit]	
CC(C)(C)c1ccc(NS(=O)(=O)c2ccc(N)cc2)cc1	inconclusive: 10.3 µM [activator, single point]	
CC(=O)N1CCOCCOCCN(C(C)=O)CCOCC1	inconclusive: 32.6 µM [falling, single point]	
CCCCN(CC)CCNC(=O)c1c(C)oc2ncnc(N3CCOCC3)c12	inconclusive: 29.1 µM [activator, single point]	
Clc1c(-c2ccccc2)nc2ccccn12	inconclusive: 5.8 µM [activator, partial curve]	
CC(=NNC(=O)c1cccc(S(=O)(=O)N2CCOCC2)c1)c1ccc(Cl)cc1	inconclusive: 25.9 µM [falling, single point]	
C=CCc1cccc2cc(C(=O)NC3CCCC3)c(=O)oc12	inconclusive: 18.4 µM [activator, single point]	
Clc1cccc(/C=N/Nc2ncnc3ccccc23)c1	inconclusive: 8.2 µM [activator, partial curve]	
O=C(NCc1ccccc1)n1cc(P(=S)(c2ccccc2)c2ccccc2)c2ccccc21		inactive: 8.23%
CC(C)(C)c1cc(N2CCOCC2)n2ncc(-c3ccc(Cl)cc3)c2n1	inconclusive: 18.4 µM [activator, partial curve, poor fit]	
CCCCc1nc2c(C)c(N)cnc2n1Cc1cccc([N+](=O)[O-])c1		inactive: -3.77%
CC1CCN(c2cc(N3CCOCC3)c(F)cc2[N+](=O)[O-])CC1	inconclusive: 18.4 µM [falling, partial curve, poor fit]	

SMILES	Potency	activity change, negative = inhibition
CN1CCN(CC#CCn2c3ccccc3c3ccccc32)CC1		inactive: -21%
CCc1cc2c(=O)c(-c3nc(C)cs3)coc2cc1OC(C)C(=O)NCCO (stereo not drawn)	active: 13 µM	
C[C@@H](NC(=O)Cn1ccc(NC(=O)OCc2ccccc2)nc1=O)c1cccc2ccccc12	inconclusive: 29.1 µM [falling, single point]	
COc1ccc(OCC(=O)Nc2nnc(S(=O)(=O)N3CCc4ccccc43)s2)cc1	inconclusive: 29.1 µM [activator, single point]	
O=C(c1ccoc1)N1CCC2(CC1)Oc1ccc(F)cc1C(=O)C21CC(c2ccccc2)=NO1 (stereo not drawn)	inconclusive: 29.1 µM [falling, single point]	
C[C@H](CO)N1C[C@H](C)[C@@H](CN(C)C(=O)Nc2ccccc2)Oc2c(NS(=O)(=O)c3ccc(F)cc3)cccc2C1=O		inactive: 6.09%
Cc1cccc(C)c1Nc1c(-c2ccccc2F)nc2cccc(C)n12	inconclusive: 11.6 µM [falling, partial curve]	
Cc1ccc(N(C)S(=O)(=O)c2ccc(C)cc2)cc1		inactive: -1.27%
CC(C)CCn1c(=O)c2cccnc2n(CC(=O)Nc2ccc(F)cc2)c1=O		inactive: -19.7%
Cc1cc2nnc(SCc3ccc(F)cc3)n2c2ccccc12		inactive: -18.1%
C=CCn1c(SCC(=O)NC(=O)NCc2ccco2)nc2sc(C)c(C)c2c1=O	inconclusive: 29.1 µM [falling, single point]	
COc1ccc(N2CCN(C(=O)CCCn3c(=S)[nH]c4cc5c(cc4c3=O)OCO5)CC2)cc1	inconclusive: 13 µM [falling, partial curve, poor fit]	
CC(=O)c1c(C)[nH]c(C(=O)CN(C)CC(=O)Nc2ccccc2Cl)c1C	inconclusive: 23.1 µM [falling, partial curve]	
COc1ccc2occ(CC(=O)Nc3ccc(S(=O)(=O)Nc4nccc(C)n4)cc3)c2c1		inactive: 5.55%
Cn1ccsc1=NC(=O)c1ccccc1F	inconclusive: 16.4 µM [activator, single point]	
FC(F)(F)c1ccc(NC(=S)NC2CCCCC2)cc1	inconclusive: 29.1 µM [falling, single point]	
CC(=O)NS(=O)(=O)c1ccc(NC(=O)c2cccc(S(=O)(=O)N3CCc4ccccc43)c2)cc1		inactive: 2.83%
Cc1ccc(-c2cnc(C3CC3)o2)cc1S(=O)(=O)Nc1ccccc1	inconclusive: 29.1 µM [activator, single point]	
O=C(CN1c2cccc3cccc(c23)S1(=O)=O)NCc1ccc(F)cc1	inconclusive: 32.6 µM [falling, single point]	
O=C(Cc1ccccc1)Nc1ccc(NC(=O)c2ccccc2)c(Cl)c1	inconclusive: 2.06 µM [falling, full curve, poor fit]	
Cc1ccc(-c2ccc(S(=O)(=O)NCC3CCCO3)cc2)cc1 (stereo not drawn)	inconclusive: 29.1 µM [falling, single point]	
COc1ccc(Cl)cc1NC(=O)CN(C)CC(=O)Nc1cccc(S(=O)(=O)N2CCCC2)c1	inconclusive: 29.1 µM [falling, single point]	
CCC1(C)CC(=O)c2c(ccc3oc(C(=O)NCc4ccccc4)c(C)c23)O1 (stereo not drawn)	inconclusive: 23.1 µM [falling, single point]	

A second format for part of the listing above:
SMILES,Potency,"activity change, negative = inhibition"
COc1ccc2occ(CC(=O)Nc3ccc(S(=O)(=O)Nc4nccc(C)n4)cc3)c2c1,,inactive: 5.55%
Cn1ccsc1=NC(=O)c1ccccc1F,"inconclusive: 16.4 µM [activator, single point]",

Following part

SMILES	Potency	activity change, negative = inhibition
Nc1ccc(C(=O)N/N=C/c2cn(Cc3ccccc3)c3ccccc23)cc1	inconclusive: 23.1 µM [falling, partial curve, poor fit]	
Cc1ccc2oc3c(c(=O)c2c1)C(c1ccc(O)cc1)N(Cc1ccc2c(c1)OCO2)C3=O (stereo not drawn)		inactive: -8.81%
Clc1ccc(-c2nc3cnccn3c2Nc2ccc3c(c2)OCO3)cc1	active: 23.1 µM	
COc1cc(/C=C2\SC(=S)N(CCC(=O)NC3CCCC3)C2=O)cc(OC)c1OC	inconclusive: 29.1 µM [activator, single point]	
Cc1ccc(S(=O)(=O)N2[C@@H](c3cccc(C)c3)C(C(=O)O)=C[C@H]2C(C)(C)C)cc1	inconclusive: 29.1 µM [falling, partial curve, poor fit]	
COc1ccc(-n2c(=O)c(CCC(=O)N(C)Cc3ccccc3C)nc3ccccc32)cc1	inconclusive: 32.6 µM [falling, single point]	
CNC(=O)NC(=O)C(C)OC(=O)CCCc1nc2ccccc2s1 (stereo not drawn)	inconclusive: 6.51 µM [falling, partial curve, poor fit]	
CC(Oc1ccc2cc(-c3ccccc3)c(=O)oc2c1)C(=O)NCC1CCC(C(=O)O)CC1 (stereo not drawn)		inactive: 8.38%
c1ccc2[nH]c(SCCN3CCOCC3)nc2c1	inconclusive: 14.6 µM [activator, single point]	
O=C(c1cc2c(ccc3ccccc32)o1)N1CCCCC1	inconclusive: 10.3 µM [activator, partial curve, poor fit]	
CC(=O)N1CCN(Cc2nc3cc(NC(=O)c4ccc(F)cc4)ccc3n2C)CC1	inconclusive: 23.1 µM [falling, single point]	
COc1cc(NS(=O)(=O)c2ccc(NC(=S)NC(=O)/C=C/c3ccco3)cc2)ncn1		inactive: 0.564%
CCCCOc1cccc(C(=O)N(Cc2ccccc2)C2CCS(=O)(=O)C2)c1 (stereo not drawn)	inconclusive: 29.1 µM [falling, partial curve, poor fit]	
COc1ccc(NC(=O)c2ccc(-c3nc(CSc4ccc(C)cc4)c(C)o3)cc2)cc1Cl	active: 23.1 µM	
CC(C)(C)C(=O)Cn1ncc(N2CCOCC2)c(Br)c1=O	inconclusive: 25.9 µM [activator, single point]	
c1ccc(-c2ccc(-c3nc(-c4ccncc4)no3)cc2)cc1	inconclusive: 1.3 µM [activator, full curve]	
COc1ccccc1C(=O)Oc1c(Sc2ccccc2)c(C)nn1C(C)(C)C		inactive: 0.0401% [at 9.27 µM]
Cc1ccc(C(=O)NC(C#N)=C(Cl)Cl)cc1		inactive: -20.2%
Cc1nc2cc(-c3ccc(Cl)cc3)nn2c(C)c1CCC(=O)NC(C)c1ccc2c(c1)OCCO2 (stereo not drawn)	active: 13 µM	
COC(=O)c1ccc(CSc2nncn2C)cc1	inconclusive: 20.6 µM [activator, partial curve]	
CCn1c(=O)c2cc(C(=O)NCCOC)sc2c2ccccc21	active: 20.6 µM	
Cc1ccc(C)c(OCC(=O)Nc2cccc(S(=O)(=O)NC3=NCCCCC3)c2)c1	inconclusive: 20.6 µM [falling, partial curve, poor fit]	

Record cards (already shown).
`CC(=O)C(Sc1nnnn1-c1ccc(O)cc1)c1ccccc1` (stereo not drawn) as listed: Potency: inconclusive: 25.9 µM [activator, partial curve, poor fit]
`CC(=O)N1CCN(Cc2nc3cc(NC(=O)c4ccc(F)cc4)ccc3n2C)CC1` as listed: Potency: inconclusive: 23.1 µM [falling, single point]
